# Results reported in publication PMC7196836, “Molecular analysis of the ribosome recycling factor ABCE1 bound to the 30S post‐splitting complex” (The EMBO Journal, 2020).
# Results are given in words; binding and its absence hold for the method and conditions named.
# Molecular target: ribosomal protein eS24 of Thermococcus celer (T. celer (endogenous in T. celer cells))
# Test: cryo-EM structure; post-splitting complex from 1 nmol T. celer 70S split by ABCE1^IIEA (8 uM), aPelota and aRF1 (5 uM each), 0.5 mM AMP-PNP, 50 mM HEPES-KOH pH 7.5, 30 mM KCl, 10 mM MgCl2, 2 mM DTT, 65 °C 15 min; cross-linked with 1% formaldehyde; 30S fractions of a 10-30% sucrose gradient; both purified
substance,measurement,value
"ABCE1^IIEA (E238A/E485A), hydrolysis-deficient ABCE1 from Saccharolobus solfataricus (from UniProt Q980K5 1-594) (enzyme)",binding,no binding
